Values from PubChem BioAssay AID1224826 (NIAID, 2016).
Screen: 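Knock-downs that raise or lower Tnf reporter signal after endotoxin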 (primary screen). Cell system: RAW264.7 G9 macrophages from mouse bearing reporters for p65 (GFP) and the Tnf promoter (mCherry). Reagents: siRNA pool against mouse genes, 100 nM. Duration: 16 h of LPS stimulation, after 2 days of siRNA transfection. Challenge: bacterial lipopolysaccharide (Salmonella minnesota R595), 10 ng/ml. Read-out: 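Nuclear mCherry signal of the Tnf promoter reporter measured by imaging after background removal, scaled to each plate median and turned into robust z-scores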. Scale: Tnf reporter robust z-score: higher = stronger Tnf promoter reporter signal after LPS. Active means: 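a well counts as active at a score of -1.3 or below (Tlr4 knock-down control median) or above 3 (raised signal); controls and wells holding fewer than 50 cells are excluded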. Meaning of the calls: active = Tnf reporter clearly lowered or raised; inactive = no clear change in Tnf reporter.
Here is one part, drawn at random, of about 17,000 deposited reagents. About 1,110 of them (6.6%) were called active. 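Active means lowered or raised reporter signal; replicate intensities are raw and not normalised per plate.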 The numbers tell different reagents against one gene apart. Further read-outs or replicates are left out here.

What is on record for Ddit4?
Tnf reporter robust z-score: -0.89; fewer than 50 cells in well: enough cells in well; call: inactive

With 1700128F08Rik, how do the results read?
Tnf reporter robust z-score: -1.36; fewer than 50 cells in well: enough cells in well; call: active

For D630044L22Rik, what was measured?
Tnf reporter robust z-score: -1.47; fewer than 50 cells in well: enough cells in well; call: active

What is on record for Kansl1l?
Tnf reporter robust z-score: -0.37; fewer than 50 cells in well: enough cells in well; call: inactive

For Srl, how do the results read?
Tnf reporter robust z-score: -1.13; fewer than 50 cells in well: enough cells in well; call: inactive

What did the screen give for Pde6c?
Tnf reporter robust z-score: -0.05; fewer than 50 cells in well: enough cells in well; call: inactive

How did the screen score Or2y1e?
Tnf reporter robust z-score: -0.76; fewer than 50 cells in well: enough cells in well; call: inactive

What did the screen give for Pdss1?
fewer than 50 cells in well: fewer than 50 cells per well; well left out of calls; call: inactive

What is on record for Kat5?
Tnf reporter robust z-score: 0.39; fewer than 50 cells in well: enough cells in well; call: inactive

For Kbtbd4, how do the results read?
Tnf reporter robust z-score: -1.08; fewer than 50 cells in well: enough cells in well; call: inactive

With Itprid2, how do the results read?
Tnf reporter robust z-score: 1.35; fewer than 50 cells in well: enough cells in well; call: inactive

For Dido1 #1, what was measured?
Tnf reporter robust z-score: 2.56; fewer than 50 cells in well: enough cells in well; call: inactive

For Dido1 #2, how do the results read?
Tnf reporter robust z-score: 0.39; fewer than 50 cells in well: enough cells in well; call: inactive

With Bfsp1, what does the deposit list?
Tnf reporter robust z-score: -0.07; fewer than 50 cells in well: enough cells in well; call: inactive

How did the screen score Alas2?
Tnf reporter robust z-score: 0.46; fewer than 50 cells in well: enough cells in well; call: inactive

For Or6c213, how do the results read?
fewer than 50 cells in well: fewer than 50 cells per well; well left out of calls; call: inactive

For Rrp12, what does the deposit list?
Tnf reporter robust z-score: -0.23; fewer than 50 cells in well: enough cells in well; call: inactive

For H2-T3, how do the results read?
Tnf reporter robust z-score: -0.85; fewer than 50 cells in well: enough cells in well; call: inactive

With Nudt11, how do the results read?
Tnf reporter robust z-score: -0.05; fewer than 50 cells in well: enough cells in well; call: inactive

With Cd79a, what does the deposit list?
Tnf reporter robust z-score: 0.56; fewer than 50 cells in well: enough cells in well; call: inactive

What did the screen give for Cdh16?
Tnf reporter robust z-score: -0.67; fewer than 50 cells in well: enough cells in well; call: inactive

Entries listed so far whose gene name starts with O or o (2):
Or2y1e | Tnf reporter robust z-score = -0.76; fewer than 50 cells in well = enough cells in well; call = inactive
Or6c213 | fewer than 50 cells in well = fewer than 50 cells per well; well left out of calls; call = inactive
